Record: PubChem BioAssay AID1053208 (Peter MacCallum Cancer Centre, 2014)
In all, the deposit lists about 17,000 reagents; shown is a random part of them. 788 of them (4.7%) were called active. 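Calls rest on z-score classes alone; an extra cut-off of viability at most 70% of control was not applied to them.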

Assay: 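Synthetic lethal interactions between gene loss and doxorubicin in osteosarcoma cells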 (primary screen)
Cell system: mouse osteosarcoma cells, early-passage culture from an engineered mouse model of fibroblastic bone tumour
Reagent: siRNA pool against mouse genes, 40 nM
Time to read-out: about 120 h (48 h before drug, then 72 h with drug)
Challenge: doxorubicin 100 nM for 72 h, roughly 30-40% inhibitory dose
Read-out: 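Luminescent ATP signal taken as viability with or without 100 nM doxorubicin for 72 h; mean of two wells set against non-targeting siRNA and turned into robust z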
Scale: viability z-score with doxorubicin and doxorubicin viability vs non-targeting: higher = more viable cells under doxorubicin; viability z-score without drug: higher = more viable cells with knock-down alone; z-score of drug to no-drug ratio: higher = less drug sensitisation by knock-down
Active means: 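a pool counts as active when its viability z-score with doxorubicin is -2 or below and its z-score without drug lies between -2 and 2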

gene symbol	combined z-score class	viability z-score with doxorubicin	viability z-score without drug	z-score of drug to no-drug ratio	doxorubicin viability vs non-targeting	outcome
Fam117a	no change with or without drug	-0.9	0.84	-1.35	0.86	inactive
Dixdc1	no change with or without drug	1.35	0.17	1.35	1.06	inactive
Serpine2	no change with or without drug	1.8	0.84	1.35	1.1	inactive
Alg12	no change with or without drug	-0.45	-1.01	0.34	0.9	inactive
Ap3m2	no change with or without drug	-0.11	-0.17	0.11	0.93	inactive
Htr3b	no change with or without drug	0.56	-1.85	2.25	0.99	inactive
Cyp19a1	high cell count with doxorubicin only	2.59	0.84	2.14	1.17	inactive
Mcoln1	no change with or without drug	0.9	-0.17	1.24	1.02	inactive
Trim54	no change with or without drug	-1.57	-0.17	-1.46	0.8	inactive
Or4m1	no change with or without drug	-0.22	-0.84	0.45	0.92	inactive
Cox6c	no change with or without drug	0.45	0.17	0.45	0.98	inactive
Scx	no change with or without drug	0.9	1.52	0	1.02	inactive
Zfp85	no change with or without drug	-0.45	1.85	-1.46	0.9	inactive
Ube2j1	no change with or without drug	1.35	0.84	0.9	1.06	inactive
Galnt7	no change with or without drug	1.01	0.51	0.79	1.03	inactive
Syt5	low cell count with doxorubicin only	-2.02	-1.69	-1.01	0.76	active
Ndufa6	low cell count without drug only	0.34	-2.53	2.59	0.97	inactive
Coprs	no change with or without drug	0	0.84	-0.45	0.94	inactive
Gk2	low cell count without drug only	-0.67	-3.2	2.02	0.88	inactive
Maea	no change with or without drug	-0.11	0.17	-0.11	0.93	inactive
Cndp2	no change with or without drug	-1.35	0.34	-1.46	0.82	inactive
Lancl3	no change with or without drug	-0.9	0.17	-0.9	0.86	inactive
Prdm5	high cell count with doxorubicin only	2.14	1.52	1.24	1.13	inactive
Dll1	no change with or without drug	0.56	0.51	0.34	0.99	inactive
Tuba1a	no change with or without drug	0.67	-1.52	2.02	1	inactive
Fn1	no change with or without drug	-0.67	0.34	-0.79	0.88	inactive
Slc23a2	no change with or without drug	-1.57	-1.18	-0.79	0.8	inactive
Eepd1	high cell count without drug only	-0.67	2.19	-1.91	0.88	inactive
Vmn1r236	no change with or without drug	1.01	-0.17	1.35	1.03	inactive
Eri3	no change with or without drug	0.34	0.34	0.22	0.97	inactive
Plekhs1	low cell count with doxorubicin only	-2.81	0.51	-3.15	0.69	active
Gramd2b	no change with or without drug	0.9	1.69	-0.11	1.02	inactive
Or6c74	low cell count with doxorubicin only	-2.14	0.17	-2.25	0.75	active
Fyb1	no change with or without drug	-0.9	-0.51	-0.56	0.86	inactive
Insrr	no change with or without drug	0	0.17	0	0.94	inactive
Hus1	no change with or without drug	-0.45	-0.17	-0.22	0.9	inactive
Tcea1	no change with or without drug	0.22	0.67	-0.11	0.96	inactive
Or2at1	no change with or without drug	0.22	0.51	0	0.96	inactive
Sdr9c7	high cell count without drug only	1.91	3.2	-0.11	1.11	inactive
Ube2z	no change with or without drug	0.45	-0.84	1.24	0.98	inactive
Ppp1r2	no change with or without drug	-0.34	1.52	-1.12	0.91	inactive
Ahsp	no change with or without drug	0.9	0.84	0.45	1.02	inactive
Lcor	no change with or without drug	1.35	0.17	1.35	1.06	inactive
Cox8a	no change with or without drug	0.11	-0.34	0.45	0.95	inactive
Aspa	no change with or without drug	0.67	-0.84	1.46	1	inactive
Tssk2	no change with or without drug	-1.57	-1.01	-0.9	0.8	inactive
Abhd15	low cell count with doxorubicin only	-2.25	-1.35	-1.46	0.74	active
Dhx34	no change with or without drug	1.57	0.84	1.12	1.08	inactive
Slc67a1	no change with or without drug	0	-0.51	0.45	0.94	inactive
Hars1	no change with or without drug	-0.45	0.17	-0.45	0.9	inactive
Lpar3	no change with or without drug	-0.67	-1.01	0.11	0.88	inactive
Phyhip	no change with or without drug	-1.57	0	-1.57	0.8	inactive
Slc25a39	no change with or without drug	-1.12	-0.17	-1.01	0.84	inactive
Capn12	no change with or without drug	0	-0.17	0.22	0.94	inactive
Arl8b	no change with or without drug	-0.56	-0.84	0.11	0.89	inactive
Or5bw2	no change with or without drug	0.9	-0.17	1.24	1.02	inactive
Vmn1r15	no change with or without drug	-1.12	0.51	-1.35	0.84	inactive
Rsu1	no change with or without drug	-1.57	-0.51	-1.24	0.8	inactive
Or7g29	no change with or without drug	-0.45	0.17	-0.45	0.9	inactive
Oard1	no change with or without drug	-0.11	0	0	0.93	inactive
Sac3d1	high cell count with doxorubicin only	2.59	-0.34	3.15	1.17	inactive
Ahsa1	no change with or without drug	-0.9	-0.51	-0.56	0.86	inactive
Cux1	no change with or without drug	0.34	-0.51	0.79	0.97	inactive

A run of entries taken from the entries so far:
gene symbol	combined z-score class	viability z-score with doxorubicin	viability z-score without drug	z-score of drug to no-drug ratio	doxorubicin viability vs non-targeting	outcome
Fn1	no change with or without drug	-0.67	0.34	-0.79	0.88	inactive
Slc23a2	no change with or without drug	-1.57	-1.18	-0.79	0.8	inactive
Eepd1	high cell count without drug only	-0.67	2.19	-1.91	0.88	inactive
Vmn1r236	no change with or without drug	1.01	-0.17	1.35	1.03	inactive
Eri3	no change with or without drug	0.34	0.34	0.22	0.97	inactive
Plekhs1	low cell count with doxorubicin only	-2.81	0.51	-3.15	0.69	active
Gramd2b	no change with or without drug	0.9	1.69	-0.11	1.02	inactive
Or6c74	low cell count with doxorubicin only	-2.14	0.17	-2.25	0.75	active
Fyb1	no change with or without drug	-0.9	-0.51	-0.56	0.86	inactive
